Experimental data reported in patent US20150203573A1 (MEDICAL AND BIOLOGICAL LABORATORIES, published 2015).
Positions count from the first letter of the chain named. Results are given in words; binding and its absence hold for the method and conditions named. Some entries that bind do so weakly or less than the wild type.

T1: recombinant mouse MK (mMK), aa1-aa119 of mouse MK (mouse) (UniProt P12025)
T1 sequence (looked up): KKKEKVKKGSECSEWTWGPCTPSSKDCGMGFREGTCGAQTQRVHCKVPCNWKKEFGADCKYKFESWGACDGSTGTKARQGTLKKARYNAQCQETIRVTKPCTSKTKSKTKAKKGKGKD

B1: mFB54-matu002 Fab antibody (Fab, V domains shown)
VH: EVMLVESGGGLVKPGGSLKLSCAASGFTFSSYAMSWVRQTPEKRLEWVATISSGGSYTYYPDSVKGRFTISRDNAKNTLYLQMSSLRSEDTAMYFCARHNYRYDEYYYAMDYWGQGTSVTVSS
VL: ETTVTQSPTSLSMAIGEKVTIRCTTSIDIDDEMNWYQQMPGEPPKLLISEGNTLRPGVPSRFSSSGYGTDFVFTIENMLSEDVADYYCLQSDNLPYTFGGGTKLEIK
B2: mFB54-matu089 Fab antibody (Fab, V domains shown)
VH: B1 VH with K13E, A23T, A24V, Q115H
VL: B1 VL with T24I, M39K, M78V
B3: hFB54-matu014 affinity-improved antibody (IgG) (antibody, V domains shown)
VH: EVQLVESGGGLVKPGGYLRLSCAASGFTFSSYAMSWVRQTPGKGLDWVATISSGGSYTYYPDSVKGRFTISRDNVKNSLYLQMNSLTDDDTAVYFCARHNYRYDEYYYAMDYWGQGTLVTVSS
VL: ETTVTQSPSSLSASVGDRVTIRCITNIDIDDEMNWYQQKPGKGPKLLISEGNTLRPGVPSRFSSSGYGTDFTLTISSLQPEDFATYYCLQSDNLPYTFGRGTKLEIK
B4: hFB54-matu024 affinity-improved antibody (IgG) (antibody, V domains shown)
VH: B3 VH with T40A, V75A, D104G
VL: B3 VL with N26S, P40S, R100Q
B5: hFB54-matu039 affinity-improved antibody (IgG) (antibody, V domains shown)
VH: B3 VH with Q3R, T40A, G66E, V75A, A109G
VL: B3 VL with I24K, N26S, R100Q, E105G
B6: hFB54-matu054 affinity-improved antibody (IgG) (antibody, V domains shown)
VH: B3 VH with T40A, V75T, S78T
VL: B3 VL with N26S, D30E, R100Q
B7: hFB54-matu062 affinity-improved antibody (IgG) (antibody, V domains shown)
VH: B3 VH with T40A, V75A, K76E, S78T, D88N
VL: B3 VL with S14F, D17G, T20A, L89M, R100Q
B8: hFB54-matu072 affinity-improved antibody (IgG) (antibody, V domains shown)
VH: B3 VH with T40A, S63N, V75A, Y108H
VL: B3 VL with S12F, R18K, N26S, R100Q
B9: mFB54-matu002 affinity-improved antibody (IgG) (antibody, V domains shown)
VH: B1 VH
VL: B1 VL
B10: mFB54-matu089 affinity-improved antibody (IgG) (antibody, V domains shown)
VH: B1 VH with K13E, A23T, A24V, Q115H
VL: B1 VL with T24I, M39K, M78V

Columns and labels:
[1] = molecular target: T1, recombinant mouse MK (mMK), aa1-aa119 of mouse MK (mouse); test: ELISA, Fab in E. coli culture supernatant on mMK coated at 5 ug/mL, anti-cp3 detection
[2] = molecular target: T1, recombinant mouse MK (mMK), aa1-aa119 of mouse MK (mouse); test: ELISA, purified Fab serially diluted from 5 ug/mL, antigen coated at 2 ug/mL; against mFB54 Fab
[3] = molecular target: T1, recombinant mouse MK (mMK), aa1-aa119 of mouse MK (mouse); test: ELISA, IgG serially diluted from 5 ug/mL; against hFB54 or mouse FB54

| Binder | binding [1] | binding [2] | binding [3] |
| --- | --- | --- | --- |
| B1 | binds | binds | – |
| B2 | binds | binds | – |
| B3 | – | – | binds |
| B4 | – | – | binds |
| B5 | – | – | binds |
| B6 | – | – | binds |
| B7 | – | – | binds |
| B8 | – | – | binds |
| B9 | – | – | binds |
| B10 | – | – | binds |
